Assay results: publication PMC11412978
Where two headings read alike, the source gives them in different places. Results are given in words; binding and its absence hold for the method and conditions named. Binding seen in cells or lysates may run through a third protein. Some results given as binding are weak or reduced against the parent protein; the word gives no strength. For some assays here: Where a sequence is shown, tags or fusion partners need not be part of it. Values belong to the molecule of their own block, whether it stands above or below them.

The chains behind the UniProt entries cited, without tags or fusion partners. Where a name states a change or a piece, a line headed by the entry shows the natural chain unless it says otherwise.
UniProt P35579: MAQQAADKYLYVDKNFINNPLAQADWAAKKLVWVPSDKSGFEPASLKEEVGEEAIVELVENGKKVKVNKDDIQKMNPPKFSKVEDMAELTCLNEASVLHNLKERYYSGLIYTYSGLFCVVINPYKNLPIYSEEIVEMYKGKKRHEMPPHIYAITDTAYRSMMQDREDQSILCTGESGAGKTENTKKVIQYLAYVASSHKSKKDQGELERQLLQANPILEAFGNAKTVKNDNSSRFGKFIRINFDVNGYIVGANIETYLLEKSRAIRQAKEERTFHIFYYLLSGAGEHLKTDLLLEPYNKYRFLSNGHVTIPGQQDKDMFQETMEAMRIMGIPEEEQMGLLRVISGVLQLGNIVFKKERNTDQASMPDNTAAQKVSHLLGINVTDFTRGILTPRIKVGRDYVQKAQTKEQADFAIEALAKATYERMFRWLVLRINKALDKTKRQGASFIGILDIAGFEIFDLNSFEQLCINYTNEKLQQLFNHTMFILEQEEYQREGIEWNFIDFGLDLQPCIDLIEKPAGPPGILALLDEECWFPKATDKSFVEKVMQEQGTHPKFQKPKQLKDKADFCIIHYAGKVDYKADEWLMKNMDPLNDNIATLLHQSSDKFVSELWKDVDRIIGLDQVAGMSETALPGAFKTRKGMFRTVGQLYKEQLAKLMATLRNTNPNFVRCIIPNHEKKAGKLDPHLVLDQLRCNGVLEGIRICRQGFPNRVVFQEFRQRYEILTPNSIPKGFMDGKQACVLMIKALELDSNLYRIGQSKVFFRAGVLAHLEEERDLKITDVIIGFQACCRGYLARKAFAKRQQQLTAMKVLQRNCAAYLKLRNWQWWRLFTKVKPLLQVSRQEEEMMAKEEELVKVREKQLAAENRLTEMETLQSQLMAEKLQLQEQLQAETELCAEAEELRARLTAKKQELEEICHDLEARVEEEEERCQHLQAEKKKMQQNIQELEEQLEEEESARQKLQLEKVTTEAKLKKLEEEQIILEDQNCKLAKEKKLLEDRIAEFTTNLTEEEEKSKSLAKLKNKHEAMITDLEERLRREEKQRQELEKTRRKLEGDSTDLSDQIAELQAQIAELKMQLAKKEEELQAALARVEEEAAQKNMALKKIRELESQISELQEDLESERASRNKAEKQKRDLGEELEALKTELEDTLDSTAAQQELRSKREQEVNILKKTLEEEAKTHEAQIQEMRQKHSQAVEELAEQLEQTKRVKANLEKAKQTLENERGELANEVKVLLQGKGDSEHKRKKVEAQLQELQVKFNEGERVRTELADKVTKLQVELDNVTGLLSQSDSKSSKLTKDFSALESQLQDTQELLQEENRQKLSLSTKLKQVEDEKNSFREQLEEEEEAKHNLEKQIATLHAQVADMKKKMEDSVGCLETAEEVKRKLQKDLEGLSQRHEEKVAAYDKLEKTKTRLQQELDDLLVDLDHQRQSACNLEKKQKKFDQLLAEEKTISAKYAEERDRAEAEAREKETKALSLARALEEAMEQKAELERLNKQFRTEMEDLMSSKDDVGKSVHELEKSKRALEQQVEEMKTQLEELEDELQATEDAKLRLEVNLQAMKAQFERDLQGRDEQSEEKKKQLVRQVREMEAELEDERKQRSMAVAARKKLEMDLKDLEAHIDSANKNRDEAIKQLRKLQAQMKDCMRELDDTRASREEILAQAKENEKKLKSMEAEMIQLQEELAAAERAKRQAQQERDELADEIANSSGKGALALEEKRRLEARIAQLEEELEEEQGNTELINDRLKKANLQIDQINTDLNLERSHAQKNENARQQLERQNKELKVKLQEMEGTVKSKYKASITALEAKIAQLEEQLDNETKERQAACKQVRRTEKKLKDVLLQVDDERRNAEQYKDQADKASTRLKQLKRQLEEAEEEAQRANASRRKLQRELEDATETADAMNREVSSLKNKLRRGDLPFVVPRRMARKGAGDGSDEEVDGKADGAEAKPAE
UniProt Q16665: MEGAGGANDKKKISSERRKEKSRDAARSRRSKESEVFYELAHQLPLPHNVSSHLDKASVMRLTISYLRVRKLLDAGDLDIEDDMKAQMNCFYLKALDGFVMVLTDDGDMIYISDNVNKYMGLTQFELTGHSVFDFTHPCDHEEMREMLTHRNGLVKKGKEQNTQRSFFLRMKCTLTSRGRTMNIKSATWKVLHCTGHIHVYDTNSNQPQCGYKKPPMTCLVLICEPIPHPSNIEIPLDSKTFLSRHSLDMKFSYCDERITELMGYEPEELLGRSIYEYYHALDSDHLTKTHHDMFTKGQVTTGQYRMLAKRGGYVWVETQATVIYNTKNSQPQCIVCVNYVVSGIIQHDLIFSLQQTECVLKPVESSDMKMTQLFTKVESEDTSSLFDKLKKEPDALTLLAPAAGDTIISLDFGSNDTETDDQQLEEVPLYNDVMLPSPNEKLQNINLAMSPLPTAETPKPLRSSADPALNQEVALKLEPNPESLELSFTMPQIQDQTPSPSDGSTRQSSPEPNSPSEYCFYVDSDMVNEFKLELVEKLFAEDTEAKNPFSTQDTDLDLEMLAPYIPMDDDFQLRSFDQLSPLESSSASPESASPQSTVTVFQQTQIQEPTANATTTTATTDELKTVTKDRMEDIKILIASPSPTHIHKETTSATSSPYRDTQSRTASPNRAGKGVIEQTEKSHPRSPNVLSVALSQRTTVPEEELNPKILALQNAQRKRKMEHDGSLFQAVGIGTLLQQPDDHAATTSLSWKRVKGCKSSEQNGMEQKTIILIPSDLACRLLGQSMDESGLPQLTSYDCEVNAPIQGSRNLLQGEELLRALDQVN

What was measured:
[1] = target: myc-tagged MYH9 (wild type) (UniProt P35579); assay: co-IP; HEK-293T cells cotransfected with myc-tagged and Flag-tagged plasmids; immunoprecipitation and western blot of the tags
myc-tagged MYH9-S1943E [2] = target: myc-tagged MYH9-S1943E (UniProt P35579); assay: as above
[3] = target: hypoxia-inducible factor-1α (endogenous) (human (endogenous in SNU-387, SNU-387-LR, Hep-3B-LR, HuH-7-LR)) (UniProt Q16665); assay: co-IP; endogenous proteins in lysates of HCC lenvatinib-resistant cells (Hep-3B-LR, HuH-7-LR); IgG as control
[4] = target: hypoxia-inducible factor-1α (endogenous) (human (endogenous in SNU-387, SNU-387-LR, Hep-3B-LR, HuH-7-LR)) (UniProt Q16665); assay: as above; remark: listed apart in the source
[5] = target: non-muscle myosin heavy chain 9 (endogenous) (human (endogenous in SNU-387-LR, Hep-3B-LR, HuH-7-LR)) (UniProt P35579); assay: as above
[6] = target: myc-tagged MYH9 (wild type) (UniProt P35579); assay: co-IP; HEK-293T cells cotransfected with myc-tagged and Flag-tagged plasmids; immunoprecipitation and western blot of the tags; remark: listed apart in the source
myc-tagged MYH9-S1943A = myc-tagged MYH9-S1943A (UniProt P35579); assay: as above
myc-tagged MYH9-S1943E [7] = target: myc-tagged MYH9-S1943E (UniProt P35579); assay: as above; remark: listed apart in the source

Molecule: non-muscle myosin heavy chain 9 (endogenous) (from UniProt P35579 1-1960)
binding [3]: binds

B1: ubiquitin-specific protease 22 (endogenous) (enzyme, UniProt Q9UPT9 1-525)
chain: MVSRPEPEGEAMDAELAVAPPGCSHLGSFKVDNWKQNLRAIYQCFVWSGTAEARKRKAKSCICHVCGVHLNRLHSCLYCVFFGCFTKKHIHEHAKAKRHNLAIDLMYGGIYCFLCQDYIYDKDMEIIAKEEQRKAWKMQGVGEKFSTWEPTKRELELLKHNPKRRKITSNCTIGLRGLINLGNTCFMNCIVQALTHTPLLRDFFLSDRHRCEMQSPSSCLVCEMSSLFQEFYSGHRSPHIPYKLLHLVWTHARHLAGYEQQDAHEFLIAALDVLHRHCKGDDNGKKANNPNHCNCIIDQIFTGGLQSDVTCQVCHGVSTTIDPFWDISLDLPGSSTPFWPLSPGSEGNVVNGESHVSGTTTLTDCLRRFTRPEHLGSSAKIKCSGCHSYQESTKQLTMKKLPIVACFHLKRFEHSAKLRRKITTYVSFPLELDMTPFMASSKESRMNGQYQQPTDSLNNDNKYSLFAVVNHQGTLESGHYTSFIRQHKDQWFKCDDAIITKASIKDVLDSEGYLLFYHKQFLEYE
binding [4]: binds
binding [5]: binds

Second part, the molecule after the results:

binding [1]: binds
binding (myc-tagged MYH9-S1943E [2]): binds
Molecule: Flag-tagged HIF-1α (from UniProt Q16665 1-826)

binding [6]: binds
binding (myc-tagged MYH9-S1943A): no binding
binding (myc-tagged MYH9-S1943E [7]): binds
B2: Flag-tagged USP22 (enzyme, UniProt Q9UPT9 1-525)
chain: MVSRPEPEGEAMDAELAVAPPGCSHLGSFKVDNWKQNLRAIYQCFVWSGTAEARKRKAKSCICHVCGVHLNRLHSCLYCVFFGCFTKKHIHEHAKAKRHNLAIDLMYGGIYCFLCQDYIYDKDMEIIAKEEQRKAWKMQGVGEKFSTWEPTKRELELLKHNPKRRKITSNCTIGLRGLINLGNTCFMNCIVQALTHTPLLRDFFLSDRHRCEMQSPSSCLVCEMSSLFQEFYSGHRSPHIPYKLLHLVWTHARHLAGYEQQDAHEFLIAALDVLHRHCKGDDNGKKANNPNHCNCIIDQIFTGGLQSDVTCQVCHGVSTTIDPFWDISLDLPGSSTPFWPLSPGSEGNVVNGESHVSGTTTLTDCLRRFTRPEHLGSSAKIKCSGCHSYQESTKQLTMKKLPIVACFHLKRFEHSAKLRRKITTYVSFPLELDMTPFMASSKESRMNGQYQQPTDSLNNDNKYSLFAVVNHQGTLESGHYTSFIRQHKDQWFKCDDAIITKASIKDVLDSEGYLLFYHKQFLEYE
